Laboratory results: publication PMC2074394 (British Journal of Cancer, 1996)

What was measured:
[1] = test system: MCF-7/Adr cells; assay: Inhibition of growth of multidrug-resistant MCF-7/Adr cells, without or with reserpine; type: cell-based; details: Homo sapiens, NCI/ADR-RES, 96 h; 4 days incubation; without reserpine
[2] = test system: PKC; details: cited from earlier work; note: key: +: potent effect; (+): weak effect; -: no effect

SMILES: CO[C@@H]1[C@H](N(C)C(=O)c2ccccc2)C[C@H]2O[C@]1(C)n1c3ccccc3c3c4c(c5c6ccccc6n2c5c31)C(=O)NC4 [CGP 41251, 4'-N-benzoyl staurosporine]
- IC50 [1]: 283 nM
- PKC inhibition, specificity (Table III summary) [2]: +
- PKC inhibition, potency (Table III summary) ([2]; ref Courage et al., 1995): +
